# Measurements as given in paper PMC7613766.
# Amino acid sequences for entries named in this document (tags omitted).
# UniProt Q9UKL0: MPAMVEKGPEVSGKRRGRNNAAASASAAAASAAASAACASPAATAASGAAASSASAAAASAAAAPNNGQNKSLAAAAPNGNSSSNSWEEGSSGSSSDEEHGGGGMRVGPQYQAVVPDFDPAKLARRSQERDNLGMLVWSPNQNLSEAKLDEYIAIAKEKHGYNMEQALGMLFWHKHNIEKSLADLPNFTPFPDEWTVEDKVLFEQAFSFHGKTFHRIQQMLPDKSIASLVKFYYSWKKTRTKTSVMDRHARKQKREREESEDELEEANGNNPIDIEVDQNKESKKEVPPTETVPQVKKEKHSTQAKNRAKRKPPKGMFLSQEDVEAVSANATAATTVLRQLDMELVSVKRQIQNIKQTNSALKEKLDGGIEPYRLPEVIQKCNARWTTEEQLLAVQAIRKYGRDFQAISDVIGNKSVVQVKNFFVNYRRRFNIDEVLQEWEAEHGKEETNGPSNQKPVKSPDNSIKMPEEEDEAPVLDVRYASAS
# These are yes or no findings as the source states them, for the method shown. In cells and extracts the contact can be indirect. These calls come from enrichment with a bait or labelling near it, and not all partners need be listed.
# T1: HMG20B (human (endogenous in THP1)) (UniProt Q9P0W2)
# T1 sequence: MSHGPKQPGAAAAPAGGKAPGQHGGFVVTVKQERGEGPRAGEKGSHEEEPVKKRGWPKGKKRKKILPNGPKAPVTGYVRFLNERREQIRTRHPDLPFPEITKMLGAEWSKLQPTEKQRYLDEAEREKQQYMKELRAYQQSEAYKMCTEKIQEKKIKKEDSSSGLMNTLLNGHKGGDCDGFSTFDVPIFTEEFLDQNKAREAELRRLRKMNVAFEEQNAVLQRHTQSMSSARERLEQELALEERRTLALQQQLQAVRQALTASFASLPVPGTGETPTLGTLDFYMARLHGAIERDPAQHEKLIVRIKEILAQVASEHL
# Molecular target: T1, HMG20B (human (endogenous in THP1))
# Test: affinity purification with mass spectrometry; HMG20B MS-IP from nuclear-enriched lysates of THP1 AML cells exposed to OG86 250 nM or DMSO for 48 h
row,binding,Molecule
1,binds,RCOR1 (from UniProt Q9UKL0 1-485)
2,binds,RCOR3 (from UniProt Q9P2K3 1-495)
3,binds,"GSE1 (protein, UniProt Q14687 1-1217) MKGMSHEPKSPSLGMLSTATRTTATVNPLTPSPLNGALVPSGSPATSSALSAQAAPSSSFAAALRKLAKQAEEPRGSSLSSESSPVSSPATNHSSPASTPKRVPMGPIIVPPGGHSVPSTPPVVTIAPTKTVNGVWRSESRQDAGSRSSSGGRERLIVEPPLPQEKAGGPAIPSHLLSTPYPFGLSPSSVVQDSRFPPLNLQRPVHHVVPPSTVTEDYLRSFRPYHTTDDLRMSSLPPLGLDPATAAAYYHPSYLAPHPFPHPAFRMDDSYCLSALRSPFYPIPTPGSLPPLHPSAMHLHLSGVRYPPELSHSSLAALHSERMSGLSAERLQMDEELRREREREREREREREADREREKEREREREKEREQEKEREREKERERELERQREQRAREKELLAAKALEPSFLPVAELHGLRGHATEERGKPSEQLTPTRAEKLKDAGLQAPKPVQHPLHPVPTPHHTVPSLISNHGIFSLPSSSAATALLIQRTNEEEKWLARQRRLRQEKEDRQSQVSEFRQQVLEQHLDMGRPPVPAEAEHRPESTTRPGPNRHEPGGRDPPQHFGGPPPLISPKPQLHAAPTALWNPVSLMDNTLETRRAESHSLHSHPAAFEPSRQAAVPLVKVERVFCPEKAEEGPRKREPAPLDKYQPPPPPPREGGSLEHQPFLPGPGPFLAELEKSTQTILGQQRASLPQAATFGELSGPLKPGSPYRPPVPRAPDPAYIYDEFLQQRRRLVSKLDLEERRRREAQEKGYYYDLDDSYDESDEEEVRAHLRCVAEQPPLKLDTSSEKLEFLQLFGLTTQQQKEELVAQKRRKRRRMLRERSPSPPTIQSKRQTPSPRLALSTRYSPDEMNNSPNFEEKKKFLTIFNLTHISAEKRKDKERLVEMLRAMKQKALSAAVADSLTNSPRDSPAVSLSEPATQQASLDVEKPVGVAASLSDIPKAAEPGKLEQVRPQELSRVQELAPASGEKARLSEAPGGKKSLSMLHYIRGAAPKDIPVPLSHSTNGKSKPWEPFVAEEFAHQFHESVLQSTQKALQKHKGSVAVLSAEQNHKVDTSVHYNIPELQSSSRAPPPQHNGQQEPPTARKGPPTQELDRDSEEEEEEDDEDGEDEEEVPKRKWQGIEAVFEAYQEHIEEQNLERQVLQTQCRRLEARHYSLSLTAEQLSHSVAELRSQKQKMVSERERLQAELDHLRKCLALPAMHWPRGYLKGYPR"
